No constants are given. Whether binding was seen depends on the method and setting. A result given as binding can be weak or reduced; the word gives no strength. Sequences can lack the tags named with a protein.
Target: T1, FRY2/CPL1, full length, fused with the DNA binding domain (BD) (Arabidopsis thaliana) (UniProt Q5YDB6)
T1 sequence: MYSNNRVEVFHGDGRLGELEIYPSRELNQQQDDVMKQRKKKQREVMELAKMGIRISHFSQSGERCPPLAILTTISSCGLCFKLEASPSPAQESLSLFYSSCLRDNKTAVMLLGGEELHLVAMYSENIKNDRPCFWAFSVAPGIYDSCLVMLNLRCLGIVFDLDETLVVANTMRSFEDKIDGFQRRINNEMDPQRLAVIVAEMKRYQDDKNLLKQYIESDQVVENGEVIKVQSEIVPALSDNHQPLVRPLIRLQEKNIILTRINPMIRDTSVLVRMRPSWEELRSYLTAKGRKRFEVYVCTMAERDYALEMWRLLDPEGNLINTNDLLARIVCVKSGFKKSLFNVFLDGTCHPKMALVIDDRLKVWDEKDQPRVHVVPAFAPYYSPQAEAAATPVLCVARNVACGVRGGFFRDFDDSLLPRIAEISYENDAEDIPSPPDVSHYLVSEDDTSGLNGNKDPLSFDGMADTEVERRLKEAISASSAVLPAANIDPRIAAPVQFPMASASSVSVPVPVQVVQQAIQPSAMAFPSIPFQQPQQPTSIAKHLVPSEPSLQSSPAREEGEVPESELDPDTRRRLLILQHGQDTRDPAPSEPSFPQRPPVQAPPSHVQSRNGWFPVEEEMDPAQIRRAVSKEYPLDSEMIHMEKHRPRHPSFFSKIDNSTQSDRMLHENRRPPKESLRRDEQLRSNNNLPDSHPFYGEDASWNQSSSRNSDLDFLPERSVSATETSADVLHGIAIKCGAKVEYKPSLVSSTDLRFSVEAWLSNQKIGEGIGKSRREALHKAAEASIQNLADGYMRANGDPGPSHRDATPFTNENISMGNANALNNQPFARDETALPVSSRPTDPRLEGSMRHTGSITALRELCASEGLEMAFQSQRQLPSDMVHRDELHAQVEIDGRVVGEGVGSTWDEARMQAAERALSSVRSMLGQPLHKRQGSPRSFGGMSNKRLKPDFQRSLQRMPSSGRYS
Assay: two-hybrid; directed tests and deletion analysis in Y190: SHI1 forms fused with the AD against full length FRY2-BD, FRY2 forms fused with the AD against full length SHI1-BD; growth on medium minus Trp, Leu and His with 3-AT and X-gal assay

Row | binding | Substance
1 | binds | SHI1 first KH domain, fused with the activation domain (AD) (Arabidopsis thaliana) (domain or fragment)
2 | binds | SHI1 third KH domain, fused with the activation domain (AD) (Arabidopsis thaliana) (domain or fragment)

From paper PMC3708844 (2013)
